Results deposited as PubChem BioAssay AID1259308 (NCATS, 2017)
Assay: 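Candidate targets for better recombinant protein yield in mammalian cells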 (primary screen). Cells: human HEK293 embryonic kidney cells stably expressing firefly luciferase (HEK-CMV-Luc2-Hygro). Reagent: single siRNA against human genes, 0.8 pmol siRNA per well. Duration: 72 h. Measured: 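Luciferase light (ONE-Glo) measured on one replicate plate set and viability (CellTiter-Glo) on the other, scaled to a negative control siRNA, with robust z-scores and luciferase per cell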. Scale: total luciferase, z-score: higher = more reporter protein produced. Call rule: 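Active when the median/MAD z-score for overall luciferase is greater than 3; a gene was taken forward for validation with new siRNAs if at least two of its three siRNAs passed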. Calls: active = raised luciferase; inactive = no rise.
Shown is a random part of about 59,000 reagents tested. In the full data, about 1,510 (2.6%) got an active call. 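Calls use total luciferase alone and ignore viability, so some active siRNAs may act by altering cell number.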 A number with no mark means an inactive call. The numbers tell different reagents against one gene apart. Further read-outs or replicates are left out here. No sequences are given here.

no.	gene	reagent no.	total luciferase, z-score
1	TMT1B	1	0.786
2	TMT1B	2	1.42
3	TMT1B	3	1.1
4	RHPN1	1	-0.446
5	RHPN1	2	-0.585
6	RHPN1	3	-0.794
7	FAM219B	1	1.27
8	FAM219B	2	-0.198
9	FAM219B	3	-0.99
10	HBS1L	1	-0.358
11	HBS1L	2	-0.208
12	HBS1L	3	-0.257
13	ECT2L	1	0.209
14	ECT2L	2	-0.0219
15	ECT2L	3	1.9
16	RIGI	1	-0.321
17	RIGI	2	-0.152
18	RIGI	3	0.135
19	ZSCAN26	1	-0.164
20	ZSCAN26	2	-1.97
21	ZSCAN26	3	3.29 (active)
22	TP53INP2	1	-0.677
23	TP53INP2	2	2.42
24	TP53INP2	3	-1.57
25	GATAD1	1	-0.512
26	GATAD1	2	0.921
27	GATAD1	3	-1
28	ADAMTS3	1	-1.34
29	ADAMTS3	2	-0.243
30	ADAMTS3	3	0.686
31	GSTM1	1	-0.379
32	GSTM1	2	-1.31
33	GSTM1	3	-1
34	ATXN10	1	0.808
35	ATXN10	2	-0.699
36	ATXN10	3	0.431
37	LOC100289470	1	-0.831
38	LOC100289470	2	-0.446
39	LOC100289470	3	-1.37
40	CD200R1	1	-0.399
41	CD200R1	2	-0.143
42	CD200R1	3	0.71
43	DENND5B	1	4.88 (active)
44	DENND5B	2	3.32 (active)
45	DENND5B	3	0.253
46	CERNA2	1	0.549
47	CERNA2	2	0.156
48	CERNA2	3	-0.188
49	PSMB8	1	0.608
50	PSMB8	2	-1.96
51	PSMB8	3	-0.235
52	CLDN12	1	-0.899
53	CLDN12	2	-0.221
54	CLDN12	3	-1.5
55	PIANP	1	-0.122
56	PIANP	2	-1.39
57	PIANP	3	0.356

Reformatted: results already given
ZSCAN26 #1
- total luciferase, z-score: -0.164

ZSCAN26 #2
- total luciferase, z-score: -1.97

ZSCAN26 #3
- total luciferase, z-score: 3.29 (active)

TP53INP2 #1
- total luciferase, z-score: -0.677

TP53INP2 #2
- total luciferase, z-score: 2.42

TP53INP2 #3
- total luciferase, z-score: -1.57

GATAD1 #1
- total luciferase, z-score: -0.512

GATAD1 #2
- total luciferase, z-score: 0.921

GATAD1 #3
- total luciferase, z-score: -1
